Positions count from the first letter of the chain named. Names may count otherwise. Results are given in words; binding and its absence hold for the method and conditions named. In cells and extracts the contact can be indirect. Some binding calls cover weakened binding; strength is not graded here. For some assays here: Where a sequence is shown, tags or fusion partners need not be part of it.

The chains behind the UniProt entries cited, without tags or fusion partners.
UniProt Q86TM6: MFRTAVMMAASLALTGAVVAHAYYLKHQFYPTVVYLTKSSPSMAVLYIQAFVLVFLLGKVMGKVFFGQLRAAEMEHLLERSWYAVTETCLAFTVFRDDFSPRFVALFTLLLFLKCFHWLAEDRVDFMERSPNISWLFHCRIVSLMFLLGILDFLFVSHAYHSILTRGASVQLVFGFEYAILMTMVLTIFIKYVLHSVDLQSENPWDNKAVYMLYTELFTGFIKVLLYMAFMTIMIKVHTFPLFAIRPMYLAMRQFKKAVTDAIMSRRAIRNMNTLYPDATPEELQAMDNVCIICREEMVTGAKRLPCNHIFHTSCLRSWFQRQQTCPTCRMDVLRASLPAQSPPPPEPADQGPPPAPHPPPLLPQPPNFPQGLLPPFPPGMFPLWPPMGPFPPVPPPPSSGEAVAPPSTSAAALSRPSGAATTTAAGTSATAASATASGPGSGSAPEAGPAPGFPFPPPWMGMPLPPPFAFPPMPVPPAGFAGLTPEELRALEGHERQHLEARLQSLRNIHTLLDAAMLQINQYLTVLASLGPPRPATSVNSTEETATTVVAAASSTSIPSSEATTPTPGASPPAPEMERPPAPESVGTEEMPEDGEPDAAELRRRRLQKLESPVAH

From PMC7883444 come the findings set out here.

The target in experiment [1] is HRD1 overexpressed from Ad-HRD1 (UniProt Q86TM6). Put plainly: co-IP; MDA-MB-231 cells infected with Ad-GFP or Ad-HRD1 for 48 h; lysate immunoprecipitated with antibody for target proteins and protein A/G agarose beads at 4 °C overnight, IgG as negative control; western blotting. For orientation: A western blot detects proteins with antibodies after separation by electrophoresis.

Experiment [2] deals with HMG-CoA reductase degradation protein 1 (HRD1) (human (endogenous in MDA-MB-231)) (UniProt Q86TM6). Described as above.
For the next experiment, the target named is Myc-tagged HRD1 (UniProt Q86TM6). The experiment is described as follows: co-IP; PFKP-depleted MDA-MB-231 cells co-transfected with Myc-tagged HRD1 and Flag-PFKP (WT or mutant); lysates IP with anti-Myc antibody, western blotting with anti-Flag.

B1: platelet isoform of phosphofructokinase (PFKP) (enzyme, UniProt Q01813 1-784)
chain: MDADDSRAPKGSLRKFLEHLSGAGKAIGVLTSGGDAQGMNAAVRAVVRMGIYVGAKVYFIYEGYQGMVDGGSNIAEADWESVSSILQVGGTIIGSARCQAFRTREGRLKAACNLLQRGITNLCVIGGDGSLTGANLFRKEWSGLLEELARNGQIDKEAVQKYAYLNVVGMVGSIDNDFCGTDMTIGTDSALHRIIEVVDAIMTTAQSHQRTFVLEVMGRHCGYLALVSALACGADWVFLPESPPEEGWEEQMCVKLSENRARKKRLNIIIVAEGAIDTQNKPITSEKIKELVVTQLGYDTRVTILGHVQRGGTPSAFDRILASRMGVEAVIALLEATPDTPACVVSLNGNHAVRLPLMECVQMTQDVQKAMDERRFQDAVRLRGRSFAGNLNTYKRLAIKLPDDQIPKTNCNVAVINVGAPAAGMNAAVRSAVRVGIADGHRMLAIYDGFDGFAKGQIKEIGWTDVGGWTGQGGSILGTKRVLPGKYLEEIATQMRTHSINALLIIGGFEAYLGLLELSAAREKHEEFCVPMVMVPATVSNNVPGSDFSIGADTALNTITDTCDRIKQSASGTKRRVFIIETMGGYCGYLANMGGLAAGADAAYIFEEPFDIRDLQSNVEHLTEKMKTTIQRGLVLRNESCSENYTTDFIYQLYSEEGKGVFDCRKNVLGHMQQGGAPSPFDRNFGTKISARAMEWITAKLKEARGRGKKFTTDDSICVLGISKRNVIFQPVAELKKQTDFEHRIPKEQWWLKLRPLMKILAKYKASYDVSDSGQLEHVQPWSV
With B1, the binding entry in experiment [1] and in experiment [2] was “binds” each time.

B2: Flag-PFKP S386A (enzyme, UniProt Q01813 1-784)
chain: B1 chain with S386A
Consider B2, for which, in the experiment with Myc-tagged HRD1, the binding entry is on record as “binds”.

B3: WT Flag-PFKP (enzyme, UniProt Q01813 1-784)
chain: B1 chain
Consider B3, for which, in the experiment with Myc-tagged HRD1, the binding entry is given as “binds”.

B4: Flag-PFKP K10R mutant (enzyme, UniProt Q01813 1-784)
chain: B1 chain with K10R
Consider B4, for which the binding result in the experiment with Myc-tagged HRD1 was “binds”.
